Measurements published in PubChem BioAssay AID602454 (National Center for Advancing Translational Sciences (NCATS), 2012).
This is one part of the list. These are further read-outs of the screen, such as a control signal, another cell line or another target. No call is given for them. Most of these compounds were active or inconclusive in the main read-out, so they are no random draw.

Experiment: qHTS Assay for Inhibitors of Influenza NS1 Protein Function: Viral Replication TCID50
Conditions: Influenza virus replication in cells, at 5 µM, stronger effect = lower value
Source text: Influenza is a world-wide public health problem and emerging forms of the virus have the potential to cause a pandemic of equal or greater magnitude to the outbreaks recorded in 1918, 1957 or 1968. Vaccine development is proceeding and there also exist two classes of anti-influenza compounds. However these therapeutic modalities are neither fully effective nor widely enough available to fulfill global needs. In addition their potential usefulness against newly emergent strains is not known. Efforts are needed to develop novel agents against influenza virus, including broad-spectrum agents. Identification of small molecules that inhibit NS1 function either directly or by interfering with specific cellular pathways may be a key to increasing our defense against the virus.
We have miniaturized and optimized a cell based assay in which NS1 from influenza A is expressed in the budding yeast S. cerevisiae. NS1 is a multi-functional protein that counters the host innate immune response and facilitates viral versus cellular gene expression. Expression of NS1 causes a pronounced slow growth phenotype in yeast due to its intrinsic molecular activities. Small molecules that suppress the slow growth phenotype can be identified by a straightforward growth recovery assay using optical density (OD) as the measurement. The same yeast strain not expressing NS1 was used as positive control in the yeast growth recovery assay.
Hits resulting from the primary screen and other follow-up screens, were tested in two concentrations in this viral replication assay.
NIH Chemical Genomics Center [NCGC]
NIH Molecular Libraries Probe Centers Network [MLPCN]
Assay Submitter (PI): Daniel Engel, University of Virgina
Cell monolayers were infected at an m.o.i. of 0.1 for 48 h in the presence or absence of the compound, which was added at the beginning of infection. Virus titres were determined by TCID50 analysis (Reed, L. J. & Muench, H. (1938). A simple method of estimating fifty per cent endpoints. Am J Epidemiol 27, 493-497)

SMILES | viral titer (log10 TCID50)
CCOC(=O)c1cnc2c(c(C)nn2-c2ccc(F)cc2)c1-c1ccc(O)c(OC)c1 | 8.5
Cc1nn(-c2ccc(Cl)cc2)c2nc(N)c(C#N)c(-c3ccc(O)c(O)c3)c12 | 8.33
COc1cc(-c2c(C#N)c(N)nc3c2c(C)nn3-c2ccccc2)ccc1O | 8.5
COc1ccc(-n2nc(C)c3c(-c4ccc(O)c(OC)c4)ccnc32)cc1 | 8.33
COc1cc(-c2c(C#N)c(N)nc3c2c(C)nn3-c2ccc(Cl)cc2)ccc1O | 8.66
COc1cc(-c2ccnc3c2c(C)nn3-c2ccc(C(F)(F)F)cc2)ccc1O | 8.33
COc1cc(-c2ccnc3c2c(C)nn3-c2cccc(C(F)(F)F)c2)ccc1O | 8.33
Cc1ccc(-n2nc(C)c3c(-c4ccc(O)c(O)c4)c(C#N)c(N)nc32)cc1C | 8
Cc1ccc(-n2nc(C)c3c(-c4ccc(O)c(O)c4)c(C#N)c(N)nc32)cc1 | 8

3 structures out of the list, ordered by number of heavy atoms, falling:
SMILES | viral titer (log10 TCID50)
Cc1ccc(-n2nc(C)c3c(-c4ccc(O)c(O)c4)c(C#N)c(N)nc32)cc1C | 8
Cc1nn(-c2ccc(Cl)cc2)c2nc(N)c(C#N)c(-c3ccc(O)c(O)c3)c12 | 8.33
COc1ccc(-n2nc(C)c3c(-c4ccc(O)c(OC)c4)ccnc32)cc1 | 8.33
